Results are given in words; binding and its absence hold for the method and conditions named. In cells and extracts the contact can be indirect. Some binding calls cover weakened binding; strength is not graded here. For some assays here: Sequences can lack the tags named with a protein. Blank lines part the entries; values can stand above or below the substance they belong to.
How the values were obtained:
Flag-tagged WDR24 = target: T1, Flag-tagged WDR24 (UniProt Q96S15); test: co-IP; HEK293 cells co-transfected with HA-tagged Sestrin2 and GATOR1 and GATOR2 components; Flag-NPRL2 (Fig. 2A) or Flag-WDR24 (Fig. 2B, S4) IPed with Flag antibody; immunoblot
T1 sequence: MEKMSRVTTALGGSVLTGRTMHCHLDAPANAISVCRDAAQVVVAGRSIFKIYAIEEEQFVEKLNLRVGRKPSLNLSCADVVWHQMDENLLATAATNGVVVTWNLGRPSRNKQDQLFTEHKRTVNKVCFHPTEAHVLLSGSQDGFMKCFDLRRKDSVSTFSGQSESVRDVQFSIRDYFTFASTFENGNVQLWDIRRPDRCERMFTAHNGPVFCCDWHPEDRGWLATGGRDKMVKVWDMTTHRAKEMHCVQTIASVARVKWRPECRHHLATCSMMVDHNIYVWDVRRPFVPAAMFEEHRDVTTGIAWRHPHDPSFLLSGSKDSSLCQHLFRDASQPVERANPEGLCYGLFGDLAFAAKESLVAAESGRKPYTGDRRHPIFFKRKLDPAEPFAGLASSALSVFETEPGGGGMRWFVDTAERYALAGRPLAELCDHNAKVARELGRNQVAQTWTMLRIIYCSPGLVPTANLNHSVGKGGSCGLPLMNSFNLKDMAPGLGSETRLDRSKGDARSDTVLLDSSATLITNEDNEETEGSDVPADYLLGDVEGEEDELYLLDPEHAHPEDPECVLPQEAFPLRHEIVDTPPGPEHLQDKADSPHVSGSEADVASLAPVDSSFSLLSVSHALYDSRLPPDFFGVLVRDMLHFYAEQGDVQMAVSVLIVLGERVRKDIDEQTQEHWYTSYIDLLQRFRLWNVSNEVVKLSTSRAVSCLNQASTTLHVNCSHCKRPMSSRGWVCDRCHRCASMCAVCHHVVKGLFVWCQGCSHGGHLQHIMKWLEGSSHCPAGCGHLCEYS

By UniProt entry, the sequences of proteins in these tests, tags left out. Where a name states a change or a piece, a line headed by the entry shows the natural chain unless it says otherwise.
UniProt O75140: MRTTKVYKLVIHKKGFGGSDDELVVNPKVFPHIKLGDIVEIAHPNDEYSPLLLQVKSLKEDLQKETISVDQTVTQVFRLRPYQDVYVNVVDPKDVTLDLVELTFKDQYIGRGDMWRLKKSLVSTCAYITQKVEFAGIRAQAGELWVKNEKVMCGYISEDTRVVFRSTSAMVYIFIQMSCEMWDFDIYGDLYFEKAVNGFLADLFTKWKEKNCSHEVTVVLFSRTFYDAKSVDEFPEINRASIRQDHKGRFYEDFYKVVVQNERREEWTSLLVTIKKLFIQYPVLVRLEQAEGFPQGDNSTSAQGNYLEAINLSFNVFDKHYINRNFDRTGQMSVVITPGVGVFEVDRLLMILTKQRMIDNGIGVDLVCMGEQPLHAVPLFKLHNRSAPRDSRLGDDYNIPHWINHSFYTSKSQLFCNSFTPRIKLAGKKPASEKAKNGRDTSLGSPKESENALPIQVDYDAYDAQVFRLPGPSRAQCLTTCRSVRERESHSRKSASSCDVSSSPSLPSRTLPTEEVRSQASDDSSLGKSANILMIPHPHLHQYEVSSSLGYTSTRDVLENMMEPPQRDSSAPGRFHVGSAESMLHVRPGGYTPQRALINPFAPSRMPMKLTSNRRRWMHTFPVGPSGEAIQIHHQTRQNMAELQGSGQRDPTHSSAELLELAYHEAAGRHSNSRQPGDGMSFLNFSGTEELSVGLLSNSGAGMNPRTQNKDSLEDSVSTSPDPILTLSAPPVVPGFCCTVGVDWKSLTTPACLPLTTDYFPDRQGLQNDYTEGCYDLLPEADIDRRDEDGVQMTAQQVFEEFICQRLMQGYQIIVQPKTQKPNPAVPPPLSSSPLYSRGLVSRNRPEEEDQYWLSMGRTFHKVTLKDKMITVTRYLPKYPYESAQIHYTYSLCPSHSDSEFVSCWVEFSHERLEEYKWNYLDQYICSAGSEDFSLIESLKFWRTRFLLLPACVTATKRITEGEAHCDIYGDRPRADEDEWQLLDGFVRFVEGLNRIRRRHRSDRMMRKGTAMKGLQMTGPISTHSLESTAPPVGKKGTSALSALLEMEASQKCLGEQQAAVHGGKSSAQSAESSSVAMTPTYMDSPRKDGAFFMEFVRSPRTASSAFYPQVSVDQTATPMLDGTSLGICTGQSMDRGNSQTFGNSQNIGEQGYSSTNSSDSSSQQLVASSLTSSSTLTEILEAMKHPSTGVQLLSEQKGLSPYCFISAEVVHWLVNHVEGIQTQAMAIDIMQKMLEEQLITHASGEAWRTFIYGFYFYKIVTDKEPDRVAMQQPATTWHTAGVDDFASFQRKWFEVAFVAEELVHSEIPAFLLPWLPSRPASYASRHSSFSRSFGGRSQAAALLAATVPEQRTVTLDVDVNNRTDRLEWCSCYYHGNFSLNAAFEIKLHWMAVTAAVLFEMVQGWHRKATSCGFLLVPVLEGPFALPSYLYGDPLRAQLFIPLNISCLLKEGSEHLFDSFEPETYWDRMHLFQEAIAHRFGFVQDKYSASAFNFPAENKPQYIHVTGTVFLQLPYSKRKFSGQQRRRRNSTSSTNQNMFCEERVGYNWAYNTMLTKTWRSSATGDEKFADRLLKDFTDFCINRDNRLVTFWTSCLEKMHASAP
UniProt Q5VZM2: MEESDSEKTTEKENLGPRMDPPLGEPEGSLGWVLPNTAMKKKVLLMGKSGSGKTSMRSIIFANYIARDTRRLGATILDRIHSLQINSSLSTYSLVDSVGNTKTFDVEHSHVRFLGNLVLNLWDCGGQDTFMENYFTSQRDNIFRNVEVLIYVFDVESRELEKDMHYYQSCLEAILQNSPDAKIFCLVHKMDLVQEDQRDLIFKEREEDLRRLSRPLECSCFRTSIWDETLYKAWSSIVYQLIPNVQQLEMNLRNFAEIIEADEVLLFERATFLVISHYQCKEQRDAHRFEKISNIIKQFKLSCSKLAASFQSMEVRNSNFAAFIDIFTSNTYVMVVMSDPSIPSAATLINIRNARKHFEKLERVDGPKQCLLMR
UniProt Q9NXC5: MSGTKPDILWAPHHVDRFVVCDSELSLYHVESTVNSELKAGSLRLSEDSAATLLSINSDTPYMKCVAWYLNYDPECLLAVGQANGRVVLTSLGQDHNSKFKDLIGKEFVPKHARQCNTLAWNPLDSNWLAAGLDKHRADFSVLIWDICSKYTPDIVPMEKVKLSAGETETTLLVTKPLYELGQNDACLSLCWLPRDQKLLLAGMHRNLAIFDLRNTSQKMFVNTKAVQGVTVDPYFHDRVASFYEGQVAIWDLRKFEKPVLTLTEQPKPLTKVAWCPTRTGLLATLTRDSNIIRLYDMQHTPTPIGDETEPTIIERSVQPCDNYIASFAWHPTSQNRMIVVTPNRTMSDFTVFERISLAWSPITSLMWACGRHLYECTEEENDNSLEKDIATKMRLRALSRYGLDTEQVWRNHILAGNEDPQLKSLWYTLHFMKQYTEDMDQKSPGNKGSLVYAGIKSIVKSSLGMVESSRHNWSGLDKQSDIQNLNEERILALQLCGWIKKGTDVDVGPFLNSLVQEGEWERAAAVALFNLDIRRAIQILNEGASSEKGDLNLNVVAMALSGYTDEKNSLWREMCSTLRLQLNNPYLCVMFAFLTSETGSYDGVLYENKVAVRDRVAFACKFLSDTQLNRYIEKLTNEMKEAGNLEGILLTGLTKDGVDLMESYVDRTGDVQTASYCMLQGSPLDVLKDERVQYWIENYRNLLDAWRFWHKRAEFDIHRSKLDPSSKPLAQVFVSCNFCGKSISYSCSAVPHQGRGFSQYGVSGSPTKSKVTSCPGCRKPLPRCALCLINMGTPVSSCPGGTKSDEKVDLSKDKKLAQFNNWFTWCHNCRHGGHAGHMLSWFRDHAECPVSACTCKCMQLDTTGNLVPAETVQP

[1] = target: T2, NPRL2 (endogenous, HEK293) (human (endogenous in HEK293)) (UniProt Q8WTW4); test: co-IP; endogenous proteins; HEK293 cells transduced with GFP or Sestrin2-overexpressing lentiviruses for 48 h; IP with RagB antibody (Fig. 3C) or NPRL2 antibody (Fig. 3D); immunoblot
T2 sequence: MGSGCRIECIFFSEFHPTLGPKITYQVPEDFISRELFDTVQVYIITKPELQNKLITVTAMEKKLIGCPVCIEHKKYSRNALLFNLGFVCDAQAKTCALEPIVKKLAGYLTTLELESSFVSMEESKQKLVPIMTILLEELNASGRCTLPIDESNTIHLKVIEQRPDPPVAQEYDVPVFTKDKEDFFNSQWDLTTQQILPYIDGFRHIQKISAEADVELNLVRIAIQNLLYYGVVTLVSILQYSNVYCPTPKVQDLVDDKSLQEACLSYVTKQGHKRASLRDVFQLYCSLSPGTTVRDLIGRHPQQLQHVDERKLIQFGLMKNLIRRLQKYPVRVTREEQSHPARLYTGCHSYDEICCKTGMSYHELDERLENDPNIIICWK

Flag-tagged Sestrin2 = target: T3, Flag-tagged Sestrin2 (UniProt P58004); test: co-IP; HEK293 cells co-transfected with Sestrin2 (or Sestrin1, or truncated Sestrin2) and all GATOR2 components, in Fig. S3D also the GATOR1 components; Sestrin2 IPed (Flag antibody in Fig. 1C); lysis buffer with 0.3% CHAPS; immunoblot
T3 sequence: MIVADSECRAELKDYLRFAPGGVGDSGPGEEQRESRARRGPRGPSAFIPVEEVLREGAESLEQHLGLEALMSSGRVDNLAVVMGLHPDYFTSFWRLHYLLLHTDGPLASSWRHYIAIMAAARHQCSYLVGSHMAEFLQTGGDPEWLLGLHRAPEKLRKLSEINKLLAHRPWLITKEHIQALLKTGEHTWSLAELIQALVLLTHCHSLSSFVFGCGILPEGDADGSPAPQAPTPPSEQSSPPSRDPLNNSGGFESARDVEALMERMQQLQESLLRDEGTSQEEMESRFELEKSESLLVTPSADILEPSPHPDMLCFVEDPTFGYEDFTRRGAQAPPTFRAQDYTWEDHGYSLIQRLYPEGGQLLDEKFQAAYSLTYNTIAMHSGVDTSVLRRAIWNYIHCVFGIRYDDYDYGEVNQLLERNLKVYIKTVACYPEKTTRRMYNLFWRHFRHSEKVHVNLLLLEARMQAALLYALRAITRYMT

Sestrin1 = target: T4, Sestrin1 (UniProt Q9Y6P5); test: as above
T4 sequence: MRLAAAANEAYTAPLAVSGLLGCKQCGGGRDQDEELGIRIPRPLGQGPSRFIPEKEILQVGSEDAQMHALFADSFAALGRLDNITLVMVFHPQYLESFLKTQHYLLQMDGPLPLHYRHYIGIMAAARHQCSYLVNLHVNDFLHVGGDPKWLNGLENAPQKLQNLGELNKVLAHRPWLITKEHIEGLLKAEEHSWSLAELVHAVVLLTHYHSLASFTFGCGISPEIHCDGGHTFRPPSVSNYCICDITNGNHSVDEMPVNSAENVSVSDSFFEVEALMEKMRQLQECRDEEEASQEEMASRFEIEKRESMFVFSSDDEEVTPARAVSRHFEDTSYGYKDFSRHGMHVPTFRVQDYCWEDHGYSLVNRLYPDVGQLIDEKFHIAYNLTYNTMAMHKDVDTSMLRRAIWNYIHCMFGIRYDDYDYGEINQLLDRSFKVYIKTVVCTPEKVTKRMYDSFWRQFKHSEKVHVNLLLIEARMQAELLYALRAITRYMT

Flag-tagged NPRL2 = target: T5, Flag-tagged NPRL2 (UniProt Q8WTW4); test: co-IP; HEK293 cells co-transfected with HA-tagged Sestrin2 and GATOR1 and GATOR2 components; Flag-NPRL2 (Fig. 2A) or Flag-WDR24 (Fig. 2B, S4) IPed with Flag antibody; immunoblot
T5 sequence: T2 sequence

binding (Flag-tagged WDR24): binds
Substance: GATOR1 complex (co-transfected components) (from UniProt O75140 1-1603; Q8WTW4 1-380; Q12980 1-569)

binding [1]: binds
Substance: RagB (endogenous, HEK293) (from UniProt Q5VZM2 1-374)

binding (Flag-tagged Sestrin2): no binding
Substance: DEPDC5 (transfected) (from UniProt O75140 1-1603)

binding (Sestrin1): binds
binding (Flag-tagged NPRL2): binds
Substance: GATOR2 complex (co-transfected components) (from UniProt Q9NXC5 1-875; Q96S15 1-790; Q6PJI9 1-974; Q96EE3 1-360; P55735 1-322)

Source: article PMC4377584
